These results are taken from PMC12347450.

Sequences of proteins named here, by UniProt entry; tags and fusion partners are left off.
UniProt Q99J83: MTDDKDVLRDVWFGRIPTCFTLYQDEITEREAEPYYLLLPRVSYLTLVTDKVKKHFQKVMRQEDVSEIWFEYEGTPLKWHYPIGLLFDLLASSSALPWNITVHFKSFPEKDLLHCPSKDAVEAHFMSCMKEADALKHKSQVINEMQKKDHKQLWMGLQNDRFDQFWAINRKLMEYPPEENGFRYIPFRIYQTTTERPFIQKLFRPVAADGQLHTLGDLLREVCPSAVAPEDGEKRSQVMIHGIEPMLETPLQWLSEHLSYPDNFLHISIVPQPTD

No constants are given. Whether binding was seen depends on the method and setting. Binding seen in cells or lysates may run through a third protein. Some binding calls cover weakened binding; strength is not graded here.

In this assay the target is T1, SPRED3 (Sprouty-related protein with EVH1 domain 3) (mouse (endogenous in brain cortex)) (UniProt Q6P6N5).
T1 sequence: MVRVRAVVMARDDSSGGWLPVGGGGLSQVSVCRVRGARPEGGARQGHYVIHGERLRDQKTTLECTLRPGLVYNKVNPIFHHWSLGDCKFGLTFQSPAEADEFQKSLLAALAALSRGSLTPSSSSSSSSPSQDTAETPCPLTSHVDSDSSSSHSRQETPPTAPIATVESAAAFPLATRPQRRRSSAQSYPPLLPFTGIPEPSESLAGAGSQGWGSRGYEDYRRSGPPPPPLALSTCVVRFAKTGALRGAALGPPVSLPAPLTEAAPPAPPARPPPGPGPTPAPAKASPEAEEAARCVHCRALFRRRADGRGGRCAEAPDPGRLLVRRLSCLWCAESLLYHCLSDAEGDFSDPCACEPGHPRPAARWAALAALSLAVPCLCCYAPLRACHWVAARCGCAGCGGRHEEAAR
In words: co-IP; brain cortex lysate (150 mM NaCl, 1% IGEPAL, 0.5% sodium deoxycholate, 50 mM Tris, pH 8), precleared, polyclonal rabbit anti-SPRED3 and Protein A/G beads, 4 °C; immunoblot for p62 or ATG5; irrelevant antibody as control.

“autophagy-related gene 5 (ATG5) (from UniProt Q99J83 1-275)”: the binding entry was “binds”.
